# Results taken from the supplement of paper PMC6411743.
# ± gives the standard deviation of the averaged measurements. Some of the results follow.
# Assays:
# Assay in all cases: NP40-soluble protein abundance relative to vehicle (solubility fold change) (ratio); higher = more soluble protein in presence of GTP
# [1] = target: T1, TTC1 (UniProt Q99614)
# T1 sequence (whole entry): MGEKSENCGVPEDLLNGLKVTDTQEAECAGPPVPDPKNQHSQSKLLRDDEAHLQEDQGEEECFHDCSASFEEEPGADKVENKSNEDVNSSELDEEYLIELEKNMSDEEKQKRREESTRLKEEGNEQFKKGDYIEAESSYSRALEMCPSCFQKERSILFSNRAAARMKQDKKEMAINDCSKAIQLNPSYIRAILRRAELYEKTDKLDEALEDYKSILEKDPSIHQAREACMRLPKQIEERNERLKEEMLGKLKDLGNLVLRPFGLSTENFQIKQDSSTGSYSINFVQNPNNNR
# Procedure, shortened: (§1)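 In three independent experiments, Jurkat crude lysate made by Dounce homogenisation was treated for 10 min at room temperature and then 3 min at 37 °C with eight concentrations ranging from 0.1 to 10 mM. It was then solubilised with 0.8% NP40 plus benzonase for 60 min at 4 °C and ultracentrifuged. The supernatant was TMT-labelled for LC-MS/MS, and each value is the fold change against the detergent-processed vehicle for the same replicate, using vsn-normalised intensities.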
# [2] = target: T2, TXNDC17 (UniProt Q9BRA2)
# T2 sequence (whole entry): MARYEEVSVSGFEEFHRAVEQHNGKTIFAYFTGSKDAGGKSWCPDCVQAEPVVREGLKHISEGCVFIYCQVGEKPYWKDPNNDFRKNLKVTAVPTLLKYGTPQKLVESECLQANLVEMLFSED
# Procedure, shortened: as §1
# [3] = target: T3, UTP14A (UniProt Q9BVJ6)
# T3 sequence (whole entry): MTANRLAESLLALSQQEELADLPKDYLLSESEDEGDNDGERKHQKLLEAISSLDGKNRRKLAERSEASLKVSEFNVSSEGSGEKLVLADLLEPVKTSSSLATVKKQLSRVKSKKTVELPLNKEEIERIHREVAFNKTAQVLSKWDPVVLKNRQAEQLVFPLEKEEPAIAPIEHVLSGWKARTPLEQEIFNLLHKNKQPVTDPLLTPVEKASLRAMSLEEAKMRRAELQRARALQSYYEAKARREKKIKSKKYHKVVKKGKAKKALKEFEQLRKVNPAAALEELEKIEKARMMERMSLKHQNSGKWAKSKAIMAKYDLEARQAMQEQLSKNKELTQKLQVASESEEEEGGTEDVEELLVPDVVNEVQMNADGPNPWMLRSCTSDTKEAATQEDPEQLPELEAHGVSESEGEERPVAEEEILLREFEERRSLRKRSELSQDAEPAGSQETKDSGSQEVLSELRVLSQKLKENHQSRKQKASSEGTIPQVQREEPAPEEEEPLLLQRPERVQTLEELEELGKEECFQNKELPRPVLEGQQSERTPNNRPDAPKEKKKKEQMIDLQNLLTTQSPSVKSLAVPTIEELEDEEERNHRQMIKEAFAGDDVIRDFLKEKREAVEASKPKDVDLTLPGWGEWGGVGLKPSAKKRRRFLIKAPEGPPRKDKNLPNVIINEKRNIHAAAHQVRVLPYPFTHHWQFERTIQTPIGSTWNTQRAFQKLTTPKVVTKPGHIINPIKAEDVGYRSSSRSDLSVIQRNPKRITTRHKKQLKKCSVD
# Procedure, shortened: as §1
# [4] = target: T4, UniProt Q96KQ4
# T4 sequence (whole entry): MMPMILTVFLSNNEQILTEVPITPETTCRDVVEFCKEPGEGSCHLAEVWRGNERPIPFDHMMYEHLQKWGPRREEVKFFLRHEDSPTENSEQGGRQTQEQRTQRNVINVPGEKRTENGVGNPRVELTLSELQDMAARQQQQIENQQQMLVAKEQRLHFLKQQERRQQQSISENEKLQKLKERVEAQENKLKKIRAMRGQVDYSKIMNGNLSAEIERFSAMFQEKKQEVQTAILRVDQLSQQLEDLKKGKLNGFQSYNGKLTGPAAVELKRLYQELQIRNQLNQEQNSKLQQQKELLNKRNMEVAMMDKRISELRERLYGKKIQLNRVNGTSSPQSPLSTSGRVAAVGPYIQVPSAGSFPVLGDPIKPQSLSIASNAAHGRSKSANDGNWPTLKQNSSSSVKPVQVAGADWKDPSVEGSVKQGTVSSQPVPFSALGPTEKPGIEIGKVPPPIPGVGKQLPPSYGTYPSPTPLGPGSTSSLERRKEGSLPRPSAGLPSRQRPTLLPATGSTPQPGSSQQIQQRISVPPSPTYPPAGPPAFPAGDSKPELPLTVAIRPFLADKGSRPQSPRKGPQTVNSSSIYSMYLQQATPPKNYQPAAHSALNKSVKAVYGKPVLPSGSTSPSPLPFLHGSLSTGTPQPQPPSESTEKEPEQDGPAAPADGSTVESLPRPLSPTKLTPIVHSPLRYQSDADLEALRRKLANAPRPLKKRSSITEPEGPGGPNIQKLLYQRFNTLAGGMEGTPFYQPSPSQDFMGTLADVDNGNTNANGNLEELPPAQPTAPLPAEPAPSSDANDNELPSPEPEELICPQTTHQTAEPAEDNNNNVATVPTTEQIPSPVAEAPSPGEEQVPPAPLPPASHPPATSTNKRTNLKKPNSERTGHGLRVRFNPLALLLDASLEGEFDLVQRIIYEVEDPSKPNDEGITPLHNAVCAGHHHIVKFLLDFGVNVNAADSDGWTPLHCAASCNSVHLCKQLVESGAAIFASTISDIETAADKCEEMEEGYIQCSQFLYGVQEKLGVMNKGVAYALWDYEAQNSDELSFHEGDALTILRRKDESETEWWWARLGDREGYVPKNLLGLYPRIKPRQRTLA
# Procedure, shortened: as §1
# [5] = target: T5, UniProt Q99733-2
# T5 sequence (whole entry): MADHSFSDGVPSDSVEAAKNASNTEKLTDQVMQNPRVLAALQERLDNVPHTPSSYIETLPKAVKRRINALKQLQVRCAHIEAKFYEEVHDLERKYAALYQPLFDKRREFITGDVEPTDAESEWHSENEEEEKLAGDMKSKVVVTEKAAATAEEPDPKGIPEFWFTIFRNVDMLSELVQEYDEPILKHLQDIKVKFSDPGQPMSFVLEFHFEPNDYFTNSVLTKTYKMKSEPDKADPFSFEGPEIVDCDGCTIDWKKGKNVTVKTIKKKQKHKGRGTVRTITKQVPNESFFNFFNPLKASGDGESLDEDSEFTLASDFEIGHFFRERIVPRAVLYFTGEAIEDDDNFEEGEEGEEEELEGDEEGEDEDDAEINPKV
# Procedure, shortened: as §1
# [6] = target: T6, UniProt Q99757 and related entries
# T6 sequence (whole entry): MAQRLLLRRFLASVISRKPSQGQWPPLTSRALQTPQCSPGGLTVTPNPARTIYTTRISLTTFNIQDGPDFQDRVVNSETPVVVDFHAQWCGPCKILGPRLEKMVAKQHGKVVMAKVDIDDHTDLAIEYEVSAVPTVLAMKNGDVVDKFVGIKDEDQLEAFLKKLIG
# Procedure, shortened: as §1
# [7] = target: T7, UniProt Q99808 and related entries
# T7 sequence (whole entry): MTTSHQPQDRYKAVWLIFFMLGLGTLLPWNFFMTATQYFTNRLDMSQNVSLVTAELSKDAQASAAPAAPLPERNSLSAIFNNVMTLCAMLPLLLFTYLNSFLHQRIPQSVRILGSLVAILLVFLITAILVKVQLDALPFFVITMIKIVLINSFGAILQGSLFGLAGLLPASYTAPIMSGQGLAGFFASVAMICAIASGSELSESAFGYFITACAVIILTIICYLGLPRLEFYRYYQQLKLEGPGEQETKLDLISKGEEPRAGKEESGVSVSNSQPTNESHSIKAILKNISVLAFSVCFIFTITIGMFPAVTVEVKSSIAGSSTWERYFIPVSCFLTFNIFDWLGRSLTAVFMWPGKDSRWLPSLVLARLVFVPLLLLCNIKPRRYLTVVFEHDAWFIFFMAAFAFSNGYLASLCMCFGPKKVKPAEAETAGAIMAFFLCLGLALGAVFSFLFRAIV
# Procedure, shortened: as §1
structure (smiles),measurement,setting,value
Nc1nc2c(ncn2[C@@H]2O[C@H](COP(=O)(O)OP(=O)(O)OP(=O)(O)O)[C@@H](O)[C@H]2O)c(=O)[nH]1 [guanosine triphosphate],NP40-soluble protein abundance,[1]; concentration: 0.1mM,0.88 ± 0.035
same,NP40-soluble protein abundance,[1]; concentration: 0.5mM,0.871 ± 0.073
same,NP40-soluble protein abundance,[1]; concentration: 1mM,0.943 ± 0.02
same,NP40-soluble protein abundance,[1]; concentration: 2mM,0.913 ± 0.075
same,NP40-soluble protein abundance,[1]; concentration: 4mM,0.893 ± 0.051
same,NP40-soluble protein abundance,[1]; concentration: 6mM,0.897 ± 0.068
same,NP40-soluble protein abundance,[1]; concentration: 8mM,0.883 ± 0.083
same,NP40-soluble protein abundance,[1]; concentration: 10mM,0.904 ± 0.032
same,NP40-soluble protein abundance,[2]; concentration: 0.1mM,0.875 ± 0.058
same,NP40-soluble protein abundance,[2]; concentration: 0.5mM,0.882 ± 0.095
same,NP40-soluble protein abundance,[2]; concentration: 1mM,0.862 ± 0.1
same,NP40-soluble protein abundance,[2]; concentration: 2mM,0.793 ± 0.11
same,NP40-soluble protein abundance,[2]; concentration: 4mM,0.743 ± 0.099
same,NP40-soluble protein abundance,[2]; concentration: 6mM,0.816 ± 0.13
same,NP40-soluble protein abundance,[2]; concentration: 8mM,0.746 ± 0.1
same,NP40-soluble protein abundance,[2]; concentration: 10mM,0.736 ± 0.092
same,NP40-soluble protein abundance,[3]; concentration: 0.1mM,1.04 ± 0.052
same,NP40-soluble protein abundance,[3]; concentration: 0.5mM,1.02 ± 0.022
same,NP40-soluble protein abundance,[3]; concentration: 1mM,1.15 ± 0.087
same,NP40-soluble protein abundance,[3]; concentration: 2mM,1.16 ± 0.026
same,NP40-soluble protein abundance,[3]; concentration: 4mM,1.24 ± 0.052
same,NP40-soluble protein abundance,[3]; concentration: 6mM,1.25 ± 0.044
same,NP40-soluble protein abundance,[3]; concentration: 8mM,1.3 ± 0.08
same,NP40-soluble protein abundance,[3]; concentration: 10mM,1.4 ± 0.073
same,NP40-soluble protein abundance,[4]; concentration: 0.1mM,0.953 ± 0.11
same,NP40-soluble protein abundance,[4]; concentration: 0.5mM,0.97 ± 0.04
same,NP40-soluble protein abundance,[4]; concentration: 1mM,1.04 ± 0.067
same,NP40-soluble protein abundance,[4]; concentration: 2mM,0.99 ± 0.057
same,NP40-soluble protein abundance,[4]; concentration: 4mM,1 ± 0.041
same,NP40-soluble protein abundance,[4]; concentration: 6mM,0.978 ± 0.029
same,NP40-soluble protein abundance,[4]; concentration: 8mM,0.982 ± 0.045
same,NP40-soluble protein abundance,[4]; concentration: 10mM,0.997 ± 0.059
same,NP40-soluble protein abundance,[5]; concentration: 0.1mM,0.959 ± 0.053
same,NP40-soluble protein abundance,[5]; concentration: 0.5mM,0.975 ± 0.049
same,NP40-soluble protein abundance,[5]; concentration: 1mM,0.98 ± 0.059
same,NP40-soluble protein abundance,[5]; concentration: 2mM,0.941 ± 0.077
same,NP40-soluble protein abundance,[5]; concentration: 4mM,0.937 ± 0.07
same,NP40-soluble protein abundance,[5]; concentration: 6mM,0.959 ± 0.069
same,NP40-soluble protein abundance,[5]; concentration: 8mM,0.971 ± 0.03
same,NP40-soluble protein abundance,[5]; concentration: 10mM,0.951 ± 0.051
same,NP40-soluble protein abundance,[6]; concentration: 0.1mM,0.827 ± 0.091
same,NP40-soluble protein abundance,[6]; concentration: 0.5mM,0.79 ± 0.12
same,NP40-soluble protein abundance,[6]; concentration: 1mM,0.929 ± 0.098
same,NP40-soluble protein abundance,[6]; concentration: 2mM,0.872 ± 0.14
same,NP40-soluble protein abundance,[6]; concentration: 4mM,0.933 ± 0.22
same,NP40-soluble protein abundance,[6]; concentration: 6mM,0.884 ± 0.16
same,NP40-soluble protein abundance,[6]; concentration: 8mM,0.854 ± 0.098
same,NP40-soluble protein abundance,[6]; concentration: 10mM,0.961 ± 0.14
same,NP40-soluble protein abundance,[7]; concentration: 0.1mM,0.869 ± 0.037
same,NP40-soluble protein abundance,[7]; concentration: 0.5mM,0.935 ± 0.08
same,NP40-soluble protein abundance,[7]; concentration: 1mM,0.836 ± 0.035
same,NP40-soluble protein abundance,[7]; concentration: 2mM,0.837 ± 0.051

# Exported with tabs: part of the list above.
structure (smiles)	measurement	setting	value
Nc1nc2c(ncn2[C@@H]2O[C@H](COP(=O)(O)OP(=O)(O)OP(=O)(O)O)[C@@H](O)[C@H]2O)c(=O)[nH]1 [guanosine triphosphate]	NP40-soluble protein abundance	[3]; concentration: 1mM	1.15 ± 0.087
same	NP40-soluble protein abundance	[3]; concentration: 4mM	1.24 ± 0.052
same	NP40-soluble protein abundance	[7]; concentration: 0.5mM	0.935 ± 0.08
